# For at least one compound, name, drawing or mass did not settle the structure.
# System: mesenchymal stem cells (BMMSCs, ADMSCs) migrating into cancer cells (A549, H1975, PANC-1, U87MG)
# Test: Transwell migration of stem cells after forskolin treatment and/or education with cancer cell culture medium
# Type: cell-based
# Conditions: 100 nM forskolin alone, cancer cell-free culture medium (education) or both (education^2)
structure (smiles),measurement,value
C=C[C@@]1(C)CC(=O)[C@]2(O)[C@@]3(C)[C@@H](O)CCC(C)(C)[C@@H]3[C@H](O)[C@H](OC(C)=O)[C@@]2(C)O1 [forskolin],ability of stem cells to migrate into cancer cells,significantly increased
